# Laboratory results from PMC7969032, “Tandem RNA binding sites induce self-association of the stress granule marker protein TIA-1”.
# Test system: T1, TIA-1 RRM23
# T1 sequence (looked up, limits assumed): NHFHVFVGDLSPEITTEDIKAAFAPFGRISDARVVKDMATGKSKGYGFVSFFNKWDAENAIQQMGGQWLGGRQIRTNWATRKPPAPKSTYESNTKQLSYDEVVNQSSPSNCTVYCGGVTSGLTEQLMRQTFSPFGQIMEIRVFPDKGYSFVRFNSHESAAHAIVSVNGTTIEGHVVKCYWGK
# Assay: fluorescence anisotropy
# Conditions: no arginine, 50 mM NaCl, KD not in text; FA: 1 nM Fl-TC1; RRM23 in 10 mM HEPES pH 7.2, 50 mM NaCl, 1 mM DTT (legend: 20 mM HEPES); full-length TIA-1 in 20 mM sodium phosphate, 60 mM KCl, 0.5 M arginine-HCl; recombinant protein; label: 5'-fluorescein; single-stranded DNA
sequence,measurement,value
TTTTTACTCC [TC1 (5'-fluorescein)],binding result,binds

# The exact form of at least one protein or probe is not confirmed. At least one verdict was read from the data and is not stated in words by the source. Protein sequences can lack the tags named with them.
